For experiment [1], the target named is UAP56::GFP E194Q (Drosophila) (UniProt Q27268). The experiment in a line: co-IP; lysates with UAP56::GFP variants and tagged THOC7 precipitated with mouse anti-GFP antibodies on protein A sepharose for 2 h; blotted for THOC7.
For experiment [2], the target named is wild-type UAP56::GFP (Drosophila) (UniProt Q27268). The description is as above.

Protein sequences, listed by entry. Tags and fused reporters are not part of them. Lines headed by an entry give the natural chain unless they say otherwise; changes in a name come on top.
UniProt Q27268: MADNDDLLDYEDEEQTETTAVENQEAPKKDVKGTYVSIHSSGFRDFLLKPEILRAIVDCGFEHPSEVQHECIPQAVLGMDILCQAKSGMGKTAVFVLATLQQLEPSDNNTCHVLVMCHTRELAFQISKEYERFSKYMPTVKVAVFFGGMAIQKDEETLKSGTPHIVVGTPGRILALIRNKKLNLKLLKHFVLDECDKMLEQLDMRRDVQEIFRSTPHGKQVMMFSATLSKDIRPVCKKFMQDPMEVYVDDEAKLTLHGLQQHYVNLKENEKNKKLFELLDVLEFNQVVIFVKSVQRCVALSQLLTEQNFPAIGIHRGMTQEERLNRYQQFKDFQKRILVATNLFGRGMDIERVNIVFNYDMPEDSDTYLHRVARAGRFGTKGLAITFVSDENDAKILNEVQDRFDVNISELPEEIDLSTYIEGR

These are yes or no findings as the source states them, for the method shown. Binding seen in cells or lysates may run through a third protein. Sequences can lack the tags named with a protein.

B1: tagged THOC7 (protein, UniProt Q8IRJ8 1-288)
chain: MSEQCQLRPHSDTLVRKLVEMNDEEIIKQRLLIDGDGTGEDRRIVVLLKQFLKWASDSLDSNPIMYDRLMAQFAQCKLTALKNVQTLQMIAGERDNYTQLVEHHEESIVLAKAEIESSKKELITAKQIRKNKMEYDLLASLIQDQPDRSETQRHIETIRREIDDLVQKKLKMERKFQKRRNDFTLLMYTIHELEQQLDQDSSSSASSSSSDCDARSEPDLDDNGIMEVSDEDDDLNNSTPTKFDGARGEPKYHSVSTEDSKAMSVEEDTVLELSIDKDEHDVDVAVAN
On to B1, for which the binding entry in experiment [1] and in experiment [2] was “no binding” each time.

Source of the values: publication PMC13245899.
